Laboratory results as given in PMC2111050, “Human RECQ1 Is a DNA Damage Responsive Protein Required for Genotoxic Stress Resistance and Suppression of Sister Chromatid Exchanges” (PLoS ONE, 2007).
Results are given in words; binding and its absence hold for the method and conditions named. In cells and extracts the contact can be indirect. Some entries that bind do so weakly or less than the wild type.

Protein sequences, listed by entry. Tags and fused reporters are not part of them. Lines headed by an entry give the natural chain unless they say otherwise; changes in a name come on top.
UniProt Q06609: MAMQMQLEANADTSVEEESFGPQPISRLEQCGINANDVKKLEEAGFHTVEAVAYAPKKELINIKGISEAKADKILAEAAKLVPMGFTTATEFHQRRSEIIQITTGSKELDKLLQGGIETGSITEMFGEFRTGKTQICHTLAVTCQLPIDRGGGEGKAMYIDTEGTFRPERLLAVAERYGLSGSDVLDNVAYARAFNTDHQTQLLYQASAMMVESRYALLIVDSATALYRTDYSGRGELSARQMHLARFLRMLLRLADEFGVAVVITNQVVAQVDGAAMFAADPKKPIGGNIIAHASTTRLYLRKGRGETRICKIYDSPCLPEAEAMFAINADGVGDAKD
UniProt P46063: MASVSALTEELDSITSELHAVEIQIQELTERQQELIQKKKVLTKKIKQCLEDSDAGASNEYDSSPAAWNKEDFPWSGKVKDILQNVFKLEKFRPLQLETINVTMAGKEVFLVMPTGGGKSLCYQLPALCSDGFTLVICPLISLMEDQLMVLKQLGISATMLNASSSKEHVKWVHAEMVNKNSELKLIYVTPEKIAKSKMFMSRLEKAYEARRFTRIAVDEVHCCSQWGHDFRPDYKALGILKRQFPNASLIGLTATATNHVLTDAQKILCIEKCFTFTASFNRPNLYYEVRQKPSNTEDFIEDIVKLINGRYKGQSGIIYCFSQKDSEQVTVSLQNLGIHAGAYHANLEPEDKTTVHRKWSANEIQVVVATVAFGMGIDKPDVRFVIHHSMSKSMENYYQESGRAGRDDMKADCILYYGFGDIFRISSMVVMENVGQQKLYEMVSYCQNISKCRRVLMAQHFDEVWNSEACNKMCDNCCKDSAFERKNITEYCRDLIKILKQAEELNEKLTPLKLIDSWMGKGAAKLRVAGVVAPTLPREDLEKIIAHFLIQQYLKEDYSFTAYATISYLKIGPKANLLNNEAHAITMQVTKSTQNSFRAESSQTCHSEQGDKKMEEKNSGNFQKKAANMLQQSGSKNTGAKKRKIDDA
UniProt P43246: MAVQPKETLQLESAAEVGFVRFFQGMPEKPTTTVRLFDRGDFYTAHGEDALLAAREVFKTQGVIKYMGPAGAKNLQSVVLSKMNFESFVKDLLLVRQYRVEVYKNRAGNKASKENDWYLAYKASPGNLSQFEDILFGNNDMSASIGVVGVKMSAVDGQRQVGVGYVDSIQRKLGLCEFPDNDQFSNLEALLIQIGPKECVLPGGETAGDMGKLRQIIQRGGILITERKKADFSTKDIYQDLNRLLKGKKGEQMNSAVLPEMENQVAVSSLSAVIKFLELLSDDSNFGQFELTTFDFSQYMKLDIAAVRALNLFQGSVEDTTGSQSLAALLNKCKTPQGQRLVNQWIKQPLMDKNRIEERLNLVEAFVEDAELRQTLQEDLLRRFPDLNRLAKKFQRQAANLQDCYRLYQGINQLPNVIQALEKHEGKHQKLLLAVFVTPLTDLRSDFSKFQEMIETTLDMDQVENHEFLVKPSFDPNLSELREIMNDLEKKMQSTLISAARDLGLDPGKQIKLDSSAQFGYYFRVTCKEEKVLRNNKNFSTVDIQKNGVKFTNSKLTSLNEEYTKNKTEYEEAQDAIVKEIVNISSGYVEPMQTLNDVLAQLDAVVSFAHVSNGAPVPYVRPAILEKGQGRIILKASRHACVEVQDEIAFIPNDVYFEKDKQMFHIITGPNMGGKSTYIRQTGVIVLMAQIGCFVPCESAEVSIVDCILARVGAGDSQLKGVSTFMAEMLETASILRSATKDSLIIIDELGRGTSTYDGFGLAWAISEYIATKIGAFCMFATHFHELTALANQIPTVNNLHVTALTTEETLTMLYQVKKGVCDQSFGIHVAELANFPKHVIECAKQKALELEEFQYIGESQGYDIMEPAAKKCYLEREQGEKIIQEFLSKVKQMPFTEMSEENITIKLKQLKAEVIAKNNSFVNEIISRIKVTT

Key:
[1] = target: Endogenous Rad51 (human (endogenous in HeLa)) (UniProt Q06609); experiment: co-IP; HeLa nuclear extract (1 mg protein) with rabbit polyclonal anti-RECQ1 or mouse monoclonal anti-Rad51, protein G-agarose, buffer D (50 mM HEPES pH 7.5, 100 mM KCl, 10% glycerol), 4°C; washes with 0.1% Tween 20; Western blot
[2] = target: Endogenous RECQ1 (human (endogenous in HeLa)) (UniProt P46063); experiment: as above
[3] = target: Endogenous RECQ1 (human (endogenous in HeLa)) (UniProt P46063); experiment: co-IP; RECQ1 immunoprecipitate probed for MSH2/6 and MLH1; data not shown

## Endogenous RECQ1 (from UniProt P46063 1-649)
[1]
  binding: binds

## Endogenous Rad51 (from UniProt Q06609 1-339)
[2]
  binding: binds

## MSH2/6 (from UniProt P43246 1-934; P52701 1-1360) (complex)
[3]
  binding: binds
